In the supplement of paper PMC7238544:
Counter-ions that a name gives are not always drawn. ± gives the standard deviation of the averaged measurements. Some of the results follow. The data scatter; read single values as rough.

Columns and labels:
[1] = test system: hAMSC donor 1; test: Hoechst total cell count ratio vs vehicle control; higher = more cells (less toxicity)
[2] = test system: hAMSC donor 2; test: as above
[3] = test system: hAMSC donor 1; test: transgenic luciferase activity (RLU/mg protein) fold change vs vehicle control (ratio); higher = more transgene expression
[4] = test system: hAMSC donor 2; test: as above
[5] = test system: hAMSC donor 1; test: transfection efficiency (EGFP+ cells / Hoechst count) fold change vs vehicle control (ratio); hAMSC are human adipose-derived mesenchymal stem cells given an EGFP-luciferase plasmid by lipofection; higher = enhanced transfection
[6] = test system: hAMSC donor 2; test: as above
[7] = priming compound concentration 0.2 µM
[8] = priming compound concentration 1.7 µM
[9] = priming compound concentration 13 µM

Question: What does the source list for `CC(C)NCC(O)COc1cccc2ccccc12` (centres undefined) [Propranolol hydrochloride]?
Answer: Hoechst total cell count ratio [1, 7]: 1.56 ± 0.089; Hoechst total cell count ratio [1, 8]: 1.26 ± 0.036; Hoechst total cell count ratio [1, 9]: 1.25 ± 0.1; Hoechst total cell count ratio [2, 7]: 1.08 ± 0.035; Hoechst total cell count ratio [2, 8]: 1.16 ± 0.13; Hoechst total cell count ratio [2, 9]: 1.32 ± 0.16; transgenic luciferase activity [3, 9]: 0.978 ± 0.15; transgenic luciferase activity [4, 7]: 0.763 ± 0.27; transgenic luciferase activity [4, 9]: 0.676 ± 0.4; transfection efficiency [5, 7]: 0.737 ± 0.28; transfection efficiency [5, 8]: 1.07 ± 0.28; transfection efficiency [5, 9]: 1.16 ± 0.28; transfection efficiency [6, 7]: 1.02 ± 0.13; transfection efficiency [6, 8]: 0.868 ± 0.14; transfection efficiency [6, 9]: 0.817 ± 0.14

Question: How did the “Hoechst total cell count ratio” value [1, 7] turn out when `COCc1c(C(C)C)nc(C(C)C)c(/C=C/[C@@H](O)C[C@@H](O)CC(=O)O)c1-c1ccc(F)cc1` [Cerivastatin sodium] was run?
Answer: Its value is 1.04 ± 0.14.

Question: What about the “Hoechst total cell count ratio” value [1, 8] of the same compound?
Answer: Its value is 0.778 ± 0.16.

Question: And the “Hoechst total cell count ratio” value [1, 9]?
Answer: The value was 0.382 ± 0.091.

Question: And the “Hoechst total cell count ratio” value [2, 7]?
Answer: The value was 1.32 ± 0.22.

Question: And the “Hoechst total cell count ratio” value [2, 8]?
Answer: Its value is 1.06 ± 0.044.

Question: And the “Hoechst total cell count ratio” value [2, 9]?
Answer: The value was 0.632 ± 0.085.

Question: What about the transgenic luciferase activity [3, 8] of the same compound?
Answer: Its transgenic luciferase activity is 0.991 ± 0.32.

Question: And the transgenic luciferase activity [4, 8]?
Answer: The transgenic luciferase activity was 0.753 ± 0.35.

Question: And the transgenic luciferase activity [4, 9]?
Answer: Its transgenic luciferase activity is 0.814 ± 0.072.

Question: What about the transfection efficiency [5, 7] of the same compound?
Answer: The transfection efficiency was 1.1 ± 0.2.

Question: And the transfection efficiency [5, 8]?
Answer: Its transfection efficiency is 2.72 ± 1.6.

Question: What about the transfection efficiency [6, 7] of the same compound?
Answer: Its transfection efficiency is 1.02 ± 0.22.

Question: What about the transfection efficiency [6, 8] of the same compound?
Answer: The transfection efficiency was 1.4 ± 0.088.

Question: And the transfection efficiency [6, 9]?
Answer: The transfection efficiency was 2.62 ± 0.17.

Question: For `CCOC(=O)[C@H](CCc1ccccc1)N[C@@H](C)C(=O)N1CCC[C@H]1C(=O)O` [Enalapril maleate], which “Hoechst total cell count ratio” value [1, 7] is on record?
Answer: The value was 1.1 ± 0.079.

Question: And the “Hoechst total cell count ratio” value [1, 8]?
Answer: Its value is 1.83 ± 0.39.

Question: What about the “Hoechst total cell count ratio” value [1, 9] of the same compound?
Answer: Its value is 1.51 ± 0.24.

Question: And the “Hoechst total cell count ratio” value [2, 7]?
Answer: The value was 1.15 ± 0.021.

Question: What about the “Hoechst total cell count ratio” value [2, 8] of the same compound?
Answer: The value was 1.14 ± 0.069.

Question: What about the “Hoechst total cell count ratio” value [2, 9] of the same compound?
Answer: The value was 1.29 ± 0.26.

Question: And the transgenic luciferase activity [3, 9]?
Answer: Its transgenic luciferase activity is 0.703 ± 0.34.

Question: And the transgenic luciferase activity [4, 7]?
Answer: Its transgenic luciferase activity is 0.561 ± 0.063.

Question: What about the transgenic luciferase activity [4, 9] of the same compound?
Answer: The transgenic luciferase activity was 0.634 ± 0.11.

Question: And the transfection efficiency [5, 7]?
Answer: Its transfection efficiency is 1.07 ± 0.087.

Question: And the transfection efficiency [5, 8]?
Answer: Its transfection efficiency is 0.548 ± 0.13.

Question: What about the transfection efficiency [5, 9] of the same compound?
Answer: Its transfection efficiency is 0.573 ± 0.032.

Question: And the transfection efficiency [6, 7]?
Answer: Its transfection efficiency is 1.15 ± 0.068.

Question: And the transfection efficiency [6, 8]?
Answer: The transfection efficiency was 0.841 ± 0.064.

Question: And the transfection efficiency [6, 9]?
Answer: The transfection efficiency was 0.984 ± 0.2.

Question: How did the “Hoechst total cell count ratio” value [1, 7] turn out when `CC(=O)Oc1ccccc1C(=O)Nc1ncc([N+](=O)[O-])s1` [Nitazoxanide] was run?
Answer: Its value is 1.38 ± 0.14.

Question: And the “Hoechst total cell count ratio” value [1, 8]?
Answer: The value was 1.1 ± 0.096.

Question: What about the “Hoechst total cell count ratio” value [1, 9] of the same compound?
Answer: Its value is 1.03 ± 0.022.

Question: What about the “Hoechst total cell count ratio” value [2, 7] of the same compound?
Answer: The value was 1.01 ± 0.073.

Question: What about the “Hoechst total cell count ratio” value [2, 8] of the same compound?
Answer: The value was 1.15 ± 0.052.

Question: And the “Hoechst total cell count ratio” value [2, 9]?
Answer: Its value is 1.58 ± 0.18.

Question: And the transgenic luciferase activity [3, 9]?
Answer: Its transgenic luciferase activity is 1.61 ± 0.38.

Question: And the transgenic luciferase activity [4, 7]?
Answer: Its transgenic luciferase activity is 1.06 ± 0.33.

Question: And the transgenic luciferase activity [4, 9]?
Answer: The transgenic luciferase activity was 0.639 ± 0.34.

Question: And the transfection efficiency [5, 7]?
Answer: Its transfection efficiency is 0.842 ± 0.056.

Question: What about the transfection efficiency [5, 8] of the same compound?
Answer: Its transfection efficiency is 1.45 ± 0.45.

Question: What about the transfection efficiency [5, 9] of the same compound?
Answer: The transfection efficiency was 1.63 ± 0.17.

Question: What about the transfection efficiency [6, 7] of the same compound?
Answer: Its transfection efficiency is 1.15 ± 0.21.

Question: And the transfection efficiency [6, 8]?
Answer: Its transfection efficiency is 0.753 ± 0.1.

Question: What about the transfection efficiency [6, 9] of the same compound?
Answer: The transfection efficiency was 0.801 ± 0.16.

Question: `CC(C)NCC(O)COc1ccc(COCCOC(C)C)cc1` (centres undefined) [Bisoprolol fumarate] was tested. Which “Hoechst total cell count ratio” value [1, 7] did it give?
Answer: The value was 1.24 ± 0.17.

Question: And the “Hoechst total cell count ratio” value [1, 8]?
Answer: The value was 1.25 ± 0.097.

Question: And the “Hoechst total cell count ratio” value [1, 9]?
Answer: Its value is 1.45 ± 0.05.

Question: What about the “Hoechst total cell count ratio” value [2, 7] of the same compound?
Answer: The value was 1.28 ± 0.059.

Question: What about the “Hoechst total cell count ratio” value [2, 8] of the same compound?
Answer: The value was 1.22 ± 0.12.

Question: What about the “Hoechst total cell count ratio” value [2, 9] of the same compound?
Answer: Its value is 1.14 ± 0.073.

Question: And the transgenic luciferase activity [3, 8]?
Answer: The transgenic luciferase activity was 0.79 ± 0.38.

Question: What about the transgenic luciferase activity [4, 8] of the same compound?
Answer: The transgenic luciferase activity was 0.97 ± 0.17.

Question: What about the transgenic luciferase activity [4, 9] of the same compound?
Answer: The transgenic luciferase activity was 0.545 ± 0.096.

Question: And the transfection efficiency [5, 7]?
Answer: The transfection efficiency was 0.927 ± 0.27.

Question: And the transfection efficiency [5, 8]?
Answer: The transfection efficiency was 0.979 ± 0.32.

Question: And the transfection efficiency [5, 9]?
Answer: The transfection efficiency was 0.865 ± 0.15.

Question: What about the transfection efficiency [6, 7] of the same compound?
Answer: The transfection efficiency was 1.01 ± 0.22.

Question: What about the transfection efficiency [6, 8] of the same compound?
Answer: Its transfection efficiency is 1.02 ± 0.15.

Question: What about the transfection efficiency [6, 9] of the same compound?
Answer: The transfection efficiency was 0.891 ± 0.1.

Question: How did the “Hoechst total cell count ratio” value [1, 7] turn out when `Cc1sc(N)c(C(=O)c2cccc(C(F)(F)F)c2)c1C` was run?
Answer: Its value is 1.16 ± 0.12.

Question: And the “Hoechst total cell count ratio” value [1, 8]?
Answer: Its value is 1.43 ± 0.034.

Question: What about the “Hoechst total cell count ratio” value [1, 9] of the same compound?
Answer: The value was 1.49 ± 0.085.

Question: And the “Hoechst total cell count ratio” value [2, 7]?
Answer: Its value is 0.888 ± 0.1.

Question: What about the “Hoechst total cell count ratio” value [2, 8] of the same compound?
Answer: The value was 1.4 ± 0.27.

Question: And the “Hoechst total cell count ratio” value [2, 9]?
Answer: The value was 1.28 ± 0.11.

Question: What about the transgenic luciferase activity [3, 8] of the same compound?
Answer: Its transgenic luciferase activity is 0.841 ± 0.64.

Question: And the transgenic luciferase activity [4, 8]?
Answer: The transgenic luciferase activity was 0.629 ± 0.14.

Question: What about the transgenic luciferase activity [4, 9] of the same compound?
Answer: The transgenic luciferase activity was 0.67 ± 0.077.

Question: And the transfection efficiency [5, 7]?
Answer: The transfection efficiency was 0.958 ± 0.21.

Question: And the transfection efficiency [5, 8]?
Answer: The transfection efficiency was 1.08 ± 0.16.

Question: What about the transfection efficiency [5, 9] of the same compound?
Answer: The transfection efficiency was 0.9 ± 0.14.

Question: What about the transfection efficiency [6, 7] of the same compound?
Answer: Its transfection efficiency is 0.982 ± 0.14.

Question: What about the transfection efficiency [6, 8] of the same compound?
Answer: Its transfection efficiency is 1.1 ± 0.088.

Question: And the transfection efficiency [6, 9]?
Answer: The transfection efficiency was 0.844 ± 0.034.

Question: With `COc1ccc2c(c1)c(CC(=O)O)c(C)n2C(=O)c1ccc(Cl)cc1` [Indomethacin hydrate] as the compound, how does the “Hoechst total cell count ratio” value [1, 7] read?
Answer: The value was 1.25 ± 0.039.

Question: What about the “Hoechst total cell count ratio” value [1, 8] of the same compound?
Answer: Its value is 1.18 ± 0.051.

Question: What about the “Hoechst total cell count ratio” value [1, 9] of the same compound?
Answer: The value was 1.34 ± 0.074.

Question: And the “Hoechst total cell count ratio” value [2, 7]?
Answer: Its value is 1.08 ± 0.079.

Question: What about the “Hoechst total cell count ratio” value [2, 8] of the same compound?
Answer: Its value is 1.37 ± 0.19.

Question: And the “Hoechst total cell count ratio” value [2, 9]?
Answer: Its value is 1.22 ± 0.12.

Question: What about the transgenic luciferase activity [3, 8] of the same compound?
Answer: Its transgenic luciferase activity is 1.15 ± 0.39.

Question: And the transgenic luciferase activity [4, 8]?
Answer: The transgenic luciferase activity was 0.711 ± 0.049.

Question: What about the transgenic luciferase activity [4, 9] of the same compound?
Answer: Its transgenic luciferase activity is 0.658 ± 0.2.

Question: What about the transfection efficiency [5, 7] of the same compound?
Answer: Its transfection efficiency is 1 ± 0.37.

Question: And the transfection efficiency [5, 8]?
Answer: The transfection efficiency was 1.21 ± 0.23.

Question: And the transfection efficiency [5, 9]?
Answer: Its transfection efficiency is 1.26 ± 0.29.

Question: And the transfection efficiency [6, 7]?
Answer: Its transfection efficiency is 1.18 ± 0.056.

Question: What about the transfection efficiency [6, 8] of the same compound?
Answer: Its transfection efficiency is 1.03 ± 0.19.

Question: And the transfection efficiency [6, 9]?
Answer: Its transfection efficiency is 0.967 ± 0.13.
